Our source for the binding values is PMC5538708.

The chains behind the UniProt entries cited, without tags or fusion partners.
UniProt Q5UPT2: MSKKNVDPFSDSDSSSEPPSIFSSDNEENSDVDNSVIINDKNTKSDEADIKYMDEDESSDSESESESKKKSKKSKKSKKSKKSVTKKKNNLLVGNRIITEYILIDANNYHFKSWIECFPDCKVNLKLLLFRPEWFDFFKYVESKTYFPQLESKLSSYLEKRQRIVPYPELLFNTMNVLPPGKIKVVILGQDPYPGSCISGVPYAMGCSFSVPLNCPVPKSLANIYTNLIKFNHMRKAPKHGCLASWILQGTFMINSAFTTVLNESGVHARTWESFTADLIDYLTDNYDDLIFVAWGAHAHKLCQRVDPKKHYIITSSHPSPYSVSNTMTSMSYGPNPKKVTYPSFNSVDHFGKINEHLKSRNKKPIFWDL

In this experiment the target is Acanthamoeba polyphaga mimivirus uracil-DNA glycosylase (mvUNG), full length (Acanthamoeba polyphaga mimivirus) (UniProt Q5UPT2). In words: SEC-MALS; purified mvUNG on a Superdex-200 analytical column with inline MALLS (miniDAWN TREOS) and refractive index detectors, flow 0.4 mL/min; both purified.

These are yes or no findings as the source states them, for the method shown.

As for “Acanthamoeba polyphaga mimivirus uracil-DNA glycosylase (mvUNG), full length (from UniProt Q5UPT2 1-370) (enzyme)”, the binding entry was “no binding”.
